# Counter-ions that a name gives are not always drawn. Among all 1,200 compounds or so, about 50 (4%) showed activity. Rule as the data show it: all actives reach 1.3 or more but so do some inactives. The list shows a part of the results.
# System: Lgr5 (MarsCy1-Lgr5-EGFP, U2OS)
# Assay: cell-surface Lgr5 expression (SCi1 fluorescence, background-subtracted) relative to WT DMSO (fold of DMSO control); higher = more Lgr5 at the plasma membrane, active = hit call of the paper
# Conditions: U2OS MarsCy1-Lgr5-EGFP stable; treatment time: overnight; 16 µM; library: Johns Hopkins Clinical Compound Library
row,Compound,cell-surface Lgr5 expression
1,CCNC(=O)CCC/C=C\C[C@@H]1[C@@H](/C=C/[C@@H](O)CCc2ccccc2)[C@H](O)C[C@@H]1O [Bimatoprost],inactive: 1.06
2,OCC(O)CO [Glycerin (Glycerol)],inactive: 0.986
3,CC1(C)O[C@@H]2C[C@H]3[C@@H]4CCC5=CC(=O)C=C[C@]5(C)[C@H]4[C@@H](O)C[C@]3(C)[C@]2(C(=O)CO)O1,active: 1.44
4,CCN(CC)CCOc1ccc2c(c1)C(=O)c1cc(OCCN(CC)CC)ccc1-2 [Tilorone dihydrochloride],active: 1.62
5,CCN(CC)C(=S)SSC(=S)N(CC)CC [Disulfiram (Tetraethylthiuram disulfide)],inactive: 0.923
6,[Br-].[K+] [Potassium bromide],inactive: 0.93
7,C/C(=C(\CCOP(=O)(O)O)SC(=O)c1ccccc1)N(C=O)Cc1cnc(C)nc1N [Benfotiamine (S-Benzoylthiamine O-monophosphate)],inactive: 0.96
8,CCCn1c(=O)[nH]c(=O)c2nc[nH]c21 [Enprofylline (3-Propylxanthine)],inactive: 1.26
9,CN1CC(O)C2=C/C(=N/NC(N)=O)C(=O)C=C21 (stereo not drawn) [Carbazochrome (Adrenochrome semicarbazone)],inactive: 1.16
10,NC(N)=NCC(=O)O [Glycocyamine (Guanidoacetic acid)],inactive: 1.17
11,C[C@H](CCC(=O)O)[C@H]1CC[C@H]2[C@@H]3[C@@H](O)C[C@@H]4C[C@H](O)CC[C@]4(C)[C@H]3CC[C@]12C [Ursodiol (Ursodeoxycholic acid)],inactive: 0.801
12,Nc1c2ccccc2nc2ccccc12 [Aminacrine (9-Aminoacridine)],inactive: 0.26
13,Cc1ccc(=O)n(-c2ccccc2)c1 [Pirfenidone],inactive: 0.859
14,Cc1c(-c2cnccn2)ssc1=S [Oltipraz],inactive: 0.909
15,C[C@@H]1C[C@H]2[C@@H]3CCC4=CC(=O)C=C[C@]4(C)[C@@]3(F)[C@@H](O)C[C@]2(C)[C@@]1(O)C(=O)COP(=O)(O)O,inactive: 1.26
16,O=P([O-])([O-])[O-].[Al+3] [Aluminum Phosphate],inactive: 1.15
17,ClC(Cl)Cl [Chloroform],inactive: 0.969
18,OCCN(CCO)c1nc(N2CCCCC2)c2nc(N(CCO)CCO)nc(N3CCCCC3)c2n1 [Dipyridamole],inactive: 1.03
19,O=C(O)c1ccccc1C(=O)Nc1ccc(S(=O)(=O)Nc2nccs2)cc1 [Phthalylsulfathiazole],inactive: 0.867

row,Compound,cell-surface Lgr5 expression
1,CO[C@@H]1[C@@H](O[C@@H]2O[C@H](C)[C@@H](O[C@H]3C[C@@](C)(O)[C@@H](OC(=O)CC(C)C)[C@H](C)O3)[C@H](N(C)C)[C@H]2O)[C@@H](CC=O)C[C@@H](C)[C@@H](O)/C=C/C=C/C[C@@H](C)OC(=O)C[C@H]1OC(C)=O [Josamycin],inactive: 1.1
2,CC(=O)CC(c1ccccc1)c1c(O)c2ccccc2oc1=O (stereo not drawn) [Warfarin (3-3-alpha-acetonylbenzyl-4-hydroxycoumarin)],inactive: 1.13
3,CC(=O)OCC(=O)[C@@]12OC(C)(C)O[C@@H]1C[C@H]1[C@@H]3CCC4=CC(=O)C=C[C@]4(C)[C@@]3(F)[C@@H](O)C[C@@]12C [Triamcinolone acetonide acetate],inactive: 1.26
4,CCC(=O)O[C@@H]1CC(=O)O[C@H](C)C/C=C/C=C/[C@H](O)[C@H](C)C[C@H](CC=O)[C@H](O[C@@H]2O[C@H](C)[C@@H](O[C@H]3C[C@@](C)(O)[C@@H](OC(=O)CC)[C@H](C)O3)[C@H](N(C)C)[C@H]2O)[C@H]1OC [Midecamycin],inactive: 0.891
5,CCN(CC)CC(=O)Nc1c(C)cccc1C [Lidocaine],inactive: 1.19
6,CC(=O)OCC(=O)[C@@]12OC(C)(C)O[C@@H]1C[C@H]1[C@@H]3C[C@H](F)C4=CC(=O)C=C[C@]4(C)[C@@]3(F)[C@@H](O)C[C@@]12C [Fluocinolone acetonide 21-acetate],active: 1.6
7,OCc1ccccc1O[C@@H]1O[C@H](CO)[C@@H](O)[C@H](O)[C@H]1O [Salicin],inactive: 1.17
8,C=CC1=C(C(=O)O)N2C(=O)[C@@H](NC(=O)/C(=N\O)c3csc(N)n3)[C@H]2SC1 [Cefdinir],inactive: 1.06
9,CN1C(CCl)Nc2cc(Cl)c(S(N)(=O)=O)cc2S1(=O)=O (stereo not drawn) [Methyclothiazide],inactive: 0.905
10,CC[C@H](C)[C@@H]1NC(=O)[C@H](Cc2ccc(O)cc2)NC(=O)[C@@H](N)CSSC[C@@H](C(=O)N2CCC[C@H]2C(=O)N[C@@H](CC(C)C)C(=O)NCC(N)=O)NC(=O)[C@H](CC(N)=O)NC(=O)[C@H](CCC(N)=O)NC1=O [Oxytocin],inactive: 1.06
11,"Cc1cn([C@H]2C=C[C@@H](CO)O2)c(=O)[nH]c1=O [Stavudine (2',3'-Didehydro-3'-Deoxythymidine)]",inactive: 0.981
12,OO.[Zn] [Zinc peroxide],inactive: 0.874
13,COc1cccc2c1C(=O)c1c(O)c3c(c(O)c1C2=O)C[C@@](O)(C(C)=O)C[C@@H]3O[C@H]1C[C@H](N)[C@H](O)[C@H](C)O1 [Daunorubicin],inactive: 0.502
14,CC(O)Cn1cnc2c1c(=O)n(C)c(=O)n2C (stereo not drawn) [Proxyphylline (17-beta-hydroxypropyltheophylline)],inactive: 0.877
15,CCC1(C)OC(=O)N(C)C1=O (stereo not drawn) [Paramethadione],inactive: 0.585
16,O=C(OOC(=O)c1ccccc1)c1ccccc1 [Benzoyl peroxide],inactive: 0.867
17,NS(=O)(=O)c1cc2c(cc1C(F)(F)F)NCNS2(=O)=O [Hydroflumethiazide],inactive: 1.01
18,CN1[C@@H]2CC[C@H]1CC(OC(=O)C(O)c1ccccc1)C2 (mixture of isomers) [DL-homatropine],inactive: 0.683
19,[S-2].[Zn+2] [Zinc sulfide],inactive: 0.879
